The list shows a part of the results.
Compound: Cc1cc(ccc1-c1ccccc1)C(=O)N1CCCN(CC1)C(=O)CCl [compound 10]
Assay: probe-labelled cysteine peptide fold change vs DMSO (competition) (log2 fold change); higher = less target engagement (more negative = stronger competition)
Details: THP-1, incubation time: 4 h
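Note: competitive profiling in live THP-1 cells: cysteine peptides tagged with an iodoacetamide desthiobiotin (IA-DTB) probe, intensity after compound treatment relative to DMSO-treated cells.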

Amino acid sequences for entries named in this document (tags omitted). A change or cut given only in a name is not applied to a line headed by its entry.
UniProt Q00341: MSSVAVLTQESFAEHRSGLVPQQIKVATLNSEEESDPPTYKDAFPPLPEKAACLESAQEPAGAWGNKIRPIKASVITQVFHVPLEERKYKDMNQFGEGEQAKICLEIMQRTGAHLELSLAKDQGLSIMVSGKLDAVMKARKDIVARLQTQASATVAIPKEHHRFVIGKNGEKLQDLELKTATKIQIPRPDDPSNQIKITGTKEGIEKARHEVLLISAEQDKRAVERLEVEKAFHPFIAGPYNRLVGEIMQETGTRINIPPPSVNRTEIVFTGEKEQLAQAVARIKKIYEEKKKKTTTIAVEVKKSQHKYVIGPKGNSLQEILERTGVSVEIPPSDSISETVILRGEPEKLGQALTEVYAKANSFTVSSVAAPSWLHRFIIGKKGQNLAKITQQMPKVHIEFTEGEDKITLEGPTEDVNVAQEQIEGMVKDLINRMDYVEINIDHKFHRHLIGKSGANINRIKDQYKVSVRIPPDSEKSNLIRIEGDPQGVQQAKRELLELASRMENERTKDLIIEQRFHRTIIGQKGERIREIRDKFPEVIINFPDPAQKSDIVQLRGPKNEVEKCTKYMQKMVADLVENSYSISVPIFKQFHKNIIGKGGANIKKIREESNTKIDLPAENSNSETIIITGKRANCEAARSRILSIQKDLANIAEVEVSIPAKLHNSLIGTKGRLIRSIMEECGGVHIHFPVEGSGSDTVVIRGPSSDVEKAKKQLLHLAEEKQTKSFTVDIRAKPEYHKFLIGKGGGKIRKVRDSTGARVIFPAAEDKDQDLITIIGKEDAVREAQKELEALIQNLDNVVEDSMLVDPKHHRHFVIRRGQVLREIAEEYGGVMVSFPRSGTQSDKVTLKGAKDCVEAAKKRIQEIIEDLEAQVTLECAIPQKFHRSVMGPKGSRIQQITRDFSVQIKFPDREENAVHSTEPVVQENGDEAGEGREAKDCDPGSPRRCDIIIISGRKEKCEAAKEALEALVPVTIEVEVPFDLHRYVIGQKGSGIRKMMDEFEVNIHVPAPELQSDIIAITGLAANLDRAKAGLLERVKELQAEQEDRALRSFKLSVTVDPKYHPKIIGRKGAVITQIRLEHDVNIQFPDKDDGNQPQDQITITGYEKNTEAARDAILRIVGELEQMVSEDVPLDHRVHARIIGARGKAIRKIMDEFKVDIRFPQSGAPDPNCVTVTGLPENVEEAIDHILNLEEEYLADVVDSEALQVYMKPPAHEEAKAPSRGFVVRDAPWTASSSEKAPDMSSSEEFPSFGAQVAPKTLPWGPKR
UniProt Q9ULT8: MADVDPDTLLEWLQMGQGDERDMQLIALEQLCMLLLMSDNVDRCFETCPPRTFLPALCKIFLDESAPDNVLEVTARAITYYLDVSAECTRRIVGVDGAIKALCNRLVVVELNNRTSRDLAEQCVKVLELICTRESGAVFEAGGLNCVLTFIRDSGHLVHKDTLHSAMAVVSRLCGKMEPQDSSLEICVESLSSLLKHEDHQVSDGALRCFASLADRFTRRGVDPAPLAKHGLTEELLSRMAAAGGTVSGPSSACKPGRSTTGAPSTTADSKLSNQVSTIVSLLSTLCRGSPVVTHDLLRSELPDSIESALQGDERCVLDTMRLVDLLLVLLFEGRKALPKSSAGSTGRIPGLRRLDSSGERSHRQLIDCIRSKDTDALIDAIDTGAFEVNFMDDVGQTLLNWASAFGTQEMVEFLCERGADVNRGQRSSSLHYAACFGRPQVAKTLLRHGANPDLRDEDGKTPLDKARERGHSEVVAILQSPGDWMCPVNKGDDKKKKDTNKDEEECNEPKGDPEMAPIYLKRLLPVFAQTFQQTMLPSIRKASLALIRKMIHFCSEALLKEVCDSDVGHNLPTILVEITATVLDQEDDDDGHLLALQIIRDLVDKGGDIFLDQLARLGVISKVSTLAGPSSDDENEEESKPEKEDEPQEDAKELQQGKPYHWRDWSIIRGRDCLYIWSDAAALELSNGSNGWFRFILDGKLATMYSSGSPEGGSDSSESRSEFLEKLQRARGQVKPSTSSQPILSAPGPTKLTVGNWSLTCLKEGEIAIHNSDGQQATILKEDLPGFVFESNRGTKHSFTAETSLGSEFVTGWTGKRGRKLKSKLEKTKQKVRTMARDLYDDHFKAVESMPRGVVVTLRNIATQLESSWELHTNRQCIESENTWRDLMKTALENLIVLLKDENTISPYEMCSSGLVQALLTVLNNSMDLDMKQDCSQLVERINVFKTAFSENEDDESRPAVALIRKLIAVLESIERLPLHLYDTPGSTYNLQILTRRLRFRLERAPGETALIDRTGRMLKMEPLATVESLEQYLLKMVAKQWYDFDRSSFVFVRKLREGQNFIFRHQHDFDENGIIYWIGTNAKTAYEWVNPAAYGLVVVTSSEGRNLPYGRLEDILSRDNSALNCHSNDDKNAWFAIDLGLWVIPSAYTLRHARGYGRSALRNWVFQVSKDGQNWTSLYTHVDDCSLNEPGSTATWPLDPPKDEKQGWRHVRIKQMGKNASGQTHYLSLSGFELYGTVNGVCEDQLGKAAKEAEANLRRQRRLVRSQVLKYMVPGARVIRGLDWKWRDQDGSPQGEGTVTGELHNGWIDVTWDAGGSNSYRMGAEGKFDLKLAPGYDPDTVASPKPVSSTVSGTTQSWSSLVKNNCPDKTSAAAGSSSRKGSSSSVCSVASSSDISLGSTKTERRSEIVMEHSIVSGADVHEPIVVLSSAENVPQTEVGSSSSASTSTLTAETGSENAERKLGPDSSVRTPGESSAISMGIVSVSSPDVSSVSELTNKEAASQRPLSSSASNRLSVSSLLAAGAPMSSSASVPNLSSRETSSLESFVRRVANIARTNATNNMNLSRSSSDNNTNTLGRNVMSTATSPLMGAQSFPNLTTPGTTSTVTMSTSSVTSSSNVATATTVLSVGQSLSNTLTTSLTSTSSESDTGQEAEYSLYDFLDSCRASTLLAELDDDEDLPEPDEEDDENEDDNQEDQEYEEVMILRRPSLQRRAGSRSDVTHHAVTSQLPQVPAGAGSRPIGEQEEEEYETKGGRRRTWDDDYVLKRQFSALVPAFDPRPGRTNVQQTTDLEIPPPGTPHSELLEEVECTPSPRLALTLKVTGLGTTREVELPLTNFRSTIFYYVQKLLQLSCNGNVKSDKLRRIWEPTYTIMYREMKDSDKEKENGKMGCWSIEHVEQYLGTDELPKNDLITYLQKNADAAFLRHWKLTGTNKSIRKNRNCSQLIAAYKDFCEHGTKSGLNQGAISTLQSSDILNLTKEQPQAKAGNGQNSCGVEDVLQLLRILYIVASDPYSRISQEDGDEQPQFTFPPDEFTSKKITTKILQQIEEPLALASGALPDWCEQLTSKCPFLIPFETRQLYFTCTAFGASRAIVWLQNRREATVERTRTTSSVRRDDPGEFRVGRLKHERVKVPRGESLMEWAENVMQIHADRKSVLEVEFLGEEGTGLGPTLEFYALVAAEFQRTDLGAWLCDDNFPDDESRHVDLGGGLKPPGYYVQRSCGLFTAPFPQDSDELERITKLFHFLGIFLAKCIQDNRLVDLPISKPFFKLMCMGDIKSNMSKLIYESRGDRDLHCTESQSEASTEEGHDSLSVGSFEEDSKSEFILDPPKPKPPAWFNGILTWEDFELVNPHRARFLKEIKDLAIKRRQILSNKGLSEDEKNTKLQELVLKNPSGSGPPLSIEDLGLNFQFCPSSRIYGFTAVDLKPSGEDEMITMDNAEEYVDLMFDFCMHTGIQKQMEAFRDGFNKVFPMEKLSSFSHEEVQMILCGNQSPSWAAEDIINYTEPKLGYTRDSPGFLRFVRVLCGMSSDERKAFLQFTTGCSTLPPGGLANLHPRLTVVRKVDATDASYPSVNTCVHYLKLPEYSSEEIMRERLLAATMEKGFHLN
UniProt Q9NWT6: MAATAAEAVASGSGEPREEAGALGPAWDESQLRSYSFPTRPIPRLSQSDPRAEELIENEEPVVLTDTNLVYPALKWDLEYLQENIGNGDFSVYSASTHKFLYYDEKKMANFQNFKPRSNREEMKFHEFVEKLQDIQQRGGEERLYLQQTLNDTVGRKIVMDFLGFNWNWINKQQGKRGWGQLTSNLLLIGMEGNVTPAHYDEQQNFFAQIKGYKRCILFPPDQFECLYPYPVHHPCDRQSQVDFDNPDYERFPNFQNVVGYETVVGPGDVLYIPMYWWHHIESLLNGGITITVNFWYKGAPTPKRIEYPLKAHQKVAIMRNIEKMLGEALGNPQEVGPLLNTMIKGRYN
UniProt Q9NRZ9: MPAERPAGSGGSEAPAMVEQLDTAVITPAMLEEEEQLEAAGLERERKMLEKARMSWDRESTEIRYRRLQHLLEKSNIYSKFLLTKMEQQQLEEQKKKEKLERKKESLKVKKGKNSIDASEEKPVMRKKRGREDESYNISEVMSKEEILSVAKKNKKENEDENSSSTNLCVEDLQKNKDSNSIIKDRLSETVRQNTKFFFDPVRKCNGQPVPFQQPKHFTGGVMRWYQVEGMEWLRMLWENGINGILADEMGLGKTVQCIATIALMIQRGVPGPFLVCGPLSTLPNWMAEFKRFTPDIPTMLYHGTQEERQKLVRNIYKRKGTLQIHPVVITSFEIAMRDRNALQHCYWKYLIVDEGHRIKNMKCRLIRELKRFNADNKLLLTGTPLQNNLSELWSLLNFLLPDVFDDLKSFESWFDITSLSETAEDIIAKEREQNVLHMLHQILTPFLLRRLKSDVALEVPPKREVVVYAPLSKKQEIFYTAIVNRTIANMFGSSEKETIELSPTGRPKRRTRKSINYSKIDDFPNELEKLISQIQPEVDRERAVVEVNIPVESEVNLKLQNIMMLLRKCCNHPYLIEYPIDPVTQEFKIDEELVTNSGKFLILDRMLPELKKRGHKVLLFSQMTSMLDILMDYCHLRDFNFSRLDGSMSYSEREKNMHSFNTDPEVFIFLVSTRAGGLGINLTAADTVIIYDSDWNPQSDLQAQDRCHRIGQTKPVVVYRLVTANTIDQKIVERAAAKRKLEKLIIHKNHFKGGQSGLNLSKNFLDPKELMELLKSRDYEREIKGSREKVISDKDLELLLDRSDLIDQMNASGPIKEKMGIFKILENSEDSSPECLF
UniProt Q9BW72: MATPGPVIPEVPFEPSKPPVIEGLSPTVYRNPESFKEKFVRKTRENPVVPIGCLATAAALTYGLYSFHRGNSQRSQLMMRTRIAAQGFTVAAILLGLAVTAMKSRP
UniProt Q5GLZ8: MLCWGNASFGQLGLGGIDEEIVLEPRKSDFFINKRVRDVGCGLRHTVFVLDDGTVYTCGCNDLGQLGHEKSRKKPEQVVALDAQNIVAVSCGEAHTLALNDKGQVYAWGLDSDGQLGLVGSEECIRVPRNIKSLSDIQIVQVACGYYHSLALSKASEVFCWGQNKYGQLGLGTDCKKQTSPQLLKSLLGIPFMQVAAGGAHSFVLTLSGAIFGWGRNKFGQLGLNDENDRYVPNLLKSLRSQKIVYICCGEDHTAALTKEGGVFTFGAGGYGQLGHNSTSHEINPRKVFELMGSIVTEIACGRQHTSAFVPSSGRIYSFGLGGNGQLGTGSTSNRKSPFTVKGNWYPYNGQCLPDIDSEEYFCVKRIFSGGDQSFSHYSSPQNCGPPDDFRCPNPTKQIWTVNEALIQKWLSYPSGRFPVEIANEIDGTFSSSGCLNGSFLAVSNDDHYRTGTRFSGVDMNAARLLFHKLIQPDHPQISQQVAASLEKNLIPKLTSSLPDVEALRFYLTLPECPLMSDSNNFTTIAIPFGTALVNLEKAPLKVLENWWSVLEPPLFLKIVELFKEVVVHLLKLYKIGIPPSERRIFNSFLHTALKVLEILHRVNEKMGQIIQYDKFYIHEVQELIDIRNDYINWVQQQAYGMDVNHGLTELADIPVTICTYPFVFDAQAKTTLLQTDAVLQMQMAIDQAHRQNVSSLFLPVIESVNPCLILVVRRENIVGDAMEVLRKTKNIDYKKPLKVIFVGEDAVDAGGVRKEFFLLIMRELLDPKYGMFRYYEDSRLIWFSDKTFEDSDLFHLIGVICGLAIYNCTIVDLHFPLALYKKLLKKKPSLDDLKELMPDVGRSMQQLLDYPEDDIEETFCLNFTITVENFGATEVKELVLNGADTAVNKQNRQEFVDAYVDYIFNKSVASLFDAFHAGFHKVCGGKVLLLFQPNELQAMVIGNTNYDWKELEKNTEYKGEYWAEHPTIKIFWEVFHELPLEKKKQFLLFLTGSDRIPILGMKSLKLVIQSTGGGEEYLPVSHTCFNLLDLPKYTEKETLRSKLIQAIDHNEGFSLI
UniProt P01891, whole entry, looked up: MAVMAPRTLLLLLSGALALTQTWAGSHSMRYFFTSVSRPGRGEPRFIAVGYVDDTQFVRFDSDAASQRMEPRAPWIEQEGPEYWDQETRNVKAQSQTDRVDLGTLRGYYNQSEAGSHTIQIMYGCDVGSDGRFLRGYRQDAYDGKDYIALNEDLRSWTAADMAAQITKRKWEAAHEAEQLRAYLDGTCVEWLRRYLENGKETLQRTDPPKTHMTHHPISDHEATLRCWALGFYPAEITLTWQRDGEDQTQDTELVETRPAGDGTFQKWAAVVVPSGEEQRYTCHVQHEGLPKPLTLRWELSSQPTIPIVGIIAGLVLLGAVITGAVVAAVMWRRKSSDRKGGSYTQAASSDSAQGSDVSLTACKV

| Target | probe-labelled cysteine peptide fold change (10 µM) | probe-labelled cysteine peptide fold change (50 µM) |
| --- | --- | --- |
| HDLBP_Q00341_636_RANCEAAR (UniProt Q00341) | 0.0667 | -0.04 |
| HECTD1_Q9ULT8_187_MEPQDSSLEICVESLSSLLK (UniProt Q9ULT8) | -0.0575 | -0.0595 |
| HEATR5B_Q9P2D3_616_AGALCAMR (UniProt Q9P2D3) | -0.0388 | -0.0489 |
| HDAC1_Q13547_284_CVEFVK (UniProt Q13547) | -0.121 | 0.0174 |
| HK1_P19367_375_LGVEPSDDDCVSVQHVCTIVSFR (UniProt P19367) | -0.147 | 0.0649 |
| HIF1AN_Q9NWT6_216+236_CILFPPDQFECLYPYPVHHPCDR (UniProt Q9NWT6) | 0.277 | 0.345 |
| HELLS_Q9NRZ9_836_ILENSEDSSPECLF (UniProt Q9NRZ9) | -0.15 | -0.108 |
| HIP1R_O75146_906_VVLHTGKYEELIVCSHEIAASTAQLVAASK (UniProt O75146) | 0.138 | 0.236 |
| HECTD1_Q9ULT8_131_VLELICTR (UniProt Q9ULT8) | 0.0517 | 0.125 |
| HIGD2A_Q9BW72_53_TRENPVVPIGCLATAAALTYGLYSFHR (UniProt Q9BW72) | 0.219 | 0.296 |
| HERC4_Q5GLZ8_248+249_IVYICCGEDHTAALTK (UniProt Q5GLZ8) | 0.0115 | -0.359 |
| HELZ_P42694_100_AVLCCMQLK (UniProt P42694) | -0.406 | -1.27 |
| HDAC2_Q92769_13_KVCYYYDGDIGNYYYGQGHPMK (UniProt Q92769) | 0.103 | -0.0158 |
| HLA-A_P01891_363_GGSYSQAASSDSAQGSDVSLTACK (UniProt P01891) | -0.379 | -0.0445 |
| HDLBP_Q00341_636_ANCEAAR (UniProt Q00341) | -0.0892 | 0.738 |
| HEATR1_Q9H583_182_GTLITHCYK (UniProt Q9H583) | -0.0527 | 0.253 |
| HEATR3_Q7Z4Q2_585_NIGCFLLEVTTK (UniProt Q7Z4Q2) | -0.0817 | -0.53 |
| HINT2_Q9BX68_75_SLPADILYEDQQCLVFR (UniProt Q9BX68) | -0.0795 | 0.0377 |
| HDGF_P51858_108_SCVEEPEPEPEAAEGDGDKK (UniProt P51858) | -0.119 | -0.437 |
| HERC4_Q5GLZ8_160_ASEVFCWGQNK (UniProt Q5GLZ8) | -0.118 | -0.0566 |
| HCFC1_P51610_1895_TCLPGFPGAPCAIK (UniProt P51610) | 0.0141 | -0.271 |
| HCLS1_P14317_470_CHGHFGLFPANYVK (UniProt P14317) | 0.0138 | -0.0493 |
| HERC2_O95714_3979_VPTPCEALATLRPVQLIGGEQTLFAVTADGK (UniProt O95714) | -0.316 | 0.144 |

A stretch of the results above:

| Target | probe-labelled cysteine peptide fold change (10 µM) | probe-labelled cysteine peptide fold change (50 µM) |
| --- | --- | --- |
| HLA-A_P01891_363_GGSYSQAASSDSAQGSDVSLTACK (UniProt P01891) | -0.379 | -0.0445 |
| HDLBP_Q00341_636_ANCEAAR (UniProt Q00341) | -0.0892 | 0.738 |
